Data from the supplement of paper PMC7858590.
“And” between values parts separate entries of the source, which are not always exact repeats. Identical values can stand only once. ± gives the standard deviation of the averaged measurements. Over roughly 3,800 compounds, “cell shape (eccentricity) Z-score vs DMSO control” has its median near 1.1; the lowest 2% begin near -4.7. The list shows a part of the results.

What follows are compounds tested on human monocyte-derived macrophages (M0) (assay: cell shape (eccentricity) Z-score vs DMSO control; higher = more elongated, M2-like morphology). Conditions: 20 µM; 24 h; macrophage state: M0 (M-CSF).

Row | SMILES | cell shape (Z-score)
1 | COc1cc(CCC(=O)N2CCC=CC2=O)cc(OC)c1OC | -1.14
2 | CCCCOc1cc(CC2CNC(=O)N2)ccc1OC (centres undefined) | 1.82
3 | O=C(O)CCc1ccc(NCc2cccc(Oc3ccccc3)c2)cc1 | 2.96
4 | Nc1c(CC(=O)O)cccc1C(=O)c1ccc(Br)cc1 | 2.14
5 | C=C1CCC2C(C)(CO)CCCC2(C)C1CC/C(C)=C/C(=O)O (centres undefined) | -4.24
6 | CO[C@H]1/C=C/O[C@@]2(C)Oc3c(C)c(O)c4c(O)c(c(C=NN5CCN(C)CC5)c(O)c4c3C2=O)NC(=O)/C(C)=C\C=C\C(C)[C@H](O)[C@@H](C)[C@@H](O)[C@@H](C)[C@@H](OC(C)=O)[C@@H]1C (some centres undefined) | 0.7
7 | CCOc1ccc2nc3cc(N)ccc3c(N)c2c1 | -2.89
8 | C=C1C2CC[C@@]3(C)[C@H](c4ccoc4)OC(=O)C[C@]13O[C@H]1CC(=O)C(C)(C)[C@H](C(O)C(=O)OC)[C@@]21C (some centres undefined) | 1.29
9 | COc1ccc2c(c1)OC1(O)COc3cc(OC)c(OC)cc3C1=C2 (centres undefined) | 3.52
10 | O=C(Nc1cc(CN2CCNCC2)cc(-c2nc3ccccc3[nH]2)c1)c1cnc2ccccc2n1 | 2.25
11 | COc1cccc2c1C(=O)c1ccc3c(c1C2=O)C(=O)CC(C)(O)C3 (centres undefined) | -0.685
12 | O=C(O)CCC(=O)Cc1ccccc1 | 1.26
13 | COC1=CC(=O)C(=O)C/C1=C\C=C\c1ccccc1 | 1.49
14 | COc1ccc([C@H]2CNC(=O)C2)cc1OC1CCCC1 | 5.39
15 | COc1cc2c(CCNC(C)=O)c[nH]c2cc1Cl | 1.18
16 | COc1c(C)c2c(c(O)c1C/C=C(\C)CCC(=O)O)C(=O)OC2 | -3.16
17 | C=C1/C(=C\C=C2/CCC[C@]3(C)C(C(C)C/C=C/C(O)(CC)CC)=CC[C@@H]23)C[C@@H](O)C[C@@H]1F (some centres undefined) | 3.94
18 | O=c1c(O)c(-c2ccccc2)oc2ccccc12 | 1.62
19 | CC[C@@]1(O)C(=O)OCc2c1cc1n(c2=O)Cc2cc3c(CN(C)C)c(O)ccc3nc2-1 | -2.01 and -0.904
20 | CCN(CC)CCOC(=O)C(c1ccccc1)c1ccccc1 | 3.12
21 | CCOC(=O)c1ccc(N)cc1 | -0.083
22 | CC(C)(C)CC(C)(C)c1ccc(O)c(Cc2ccc(Cl)cc2Cl)c1 | -1.35
23 | CCCCC(C=O)NC(=O)C(CC(C)C)NC(=O)OCc1ccccc1 (centres undefined) | 1.22
24 | CCCN(CCC)C(=O)C(CCC(=O)O)NC(=O)c1ccccc1 (centres undefined) | 0.978

Row | SMILES | cell shape (Z-score)
25 | CC1=C(CC/C(C)=C/C(=O)O)[C@@]2(C)CCCC(C)(C)C2CC1 (some centres undefined) | -3.29
26 | COc1cc(OC)c(O[C@@H]2O[C@H](COC(=O)c3cc(O)c(O)c(O)c3)[C@@H](O)[C@H](O)[C@H]2O)c(OC)c1 | -0.208
27 | COc1cc2oc(-c3ccc(O)cc3)cc(=O)c2c(O)c1OC | 6.67
28 | COc1cc2c(cc1-c1c(C)noc1C)ncc1[nH]c(=O)n([C@H](C)c3ccccn3)c12 | 10.2
29 | COc1cc(NC(C)CCCN)c2ncccc2c1 (centres undefined) | -0.136
30 | CC1(C)CCN(c2ccc(C(=O)NS(=O)(=O)c3ccc(NCCSc4ccccc4)c([N+](=O)[O-])c3)cc2)CC1 | 2.76
31 | COc1ccc(-c2cc(=O)c3c(O)c(OC)c(OC)c(OC)c3o2)cc1OC | 4.17
32 | CC1OC(O[C@H]2[C@@H](O)C[C@@]3(C)C(CC[C@]4(C)C3CC=C3[C@@H]5CC(C)(C)CC[C@]5(C(=O)OC5OC(C)C(OC6OCC(OC7OCC(O)C(OC8OCC(O)C(O)C8O)C7O)C(O)C6O)C(O)C5O)CC[C@]34C)[C@]2(C)CO)C(O)C(OC2OC(CO)C(O)C(O)C2O)C1O (some centres undefined) | 0.13
33 | Cc1ccc2c(c1)C(=O)C1(O)CCN(c3ccccc3)C1=N2 (centres undefined) | 4.21
34 | COc1cc(O)c(C(=O)c2c(O)cc(C)cc2O)c(C(=O)O)c1 | 1.14 ± 0.29
35 | COc1ccc2cc([C@H](C)CO)ccc2c1 | 1.72
36 | CN(C)C(=O)c1ccc(S(=O)(=O)c2ccc(NC(=O)[C@@](C)(O)C(F)(F)F)c(Cl)c2)cc1 | 0.907
37 | COc1cc(O[C@@H]2O[C@H](CO)[C@@H](O)[C@H](O)[C@H]2O)cc(OC)c1OC | 1.98
38 | O=C(C=Cc1ccc(O)c(O)c1)OCCc1ccccc1 | -1.93
39 | COc1ccc2ccc(=O)oc2c1CC(O)C(C)(C)O (centres undefined) | 0.763
40 | COc1ccc2c3c1O[C@H]1C[C@@H](O)C=C[C@@]31CCN(C)C2 | 1.93
41 | Cc1cc(O)c(C)c2c1Oc1c(C)c(O)cc(C)c1C(=O)O2 | -6.49
42 | CC(C)(C)c1cc(/C=C(\C#N)C(N)=S)cc(C(C)(C)C)c1O | -0.33
43 | NCCNS(=O)(=O)c1cccc2cnccc12 | -0.135
44 | COc1cc2c(cc1OC)C(=O)OC2 | -1.22
45 | Oc1cc2c(c(Cl)c1O)CCNCC2c1ccccc1 (centres undefined) | 2.16
46 | NS(=O)(=O)c1cc(C(=O)O)c(NCc2ccco2)cc1Cl | 1.08
47 | CCOC(=O)C1C(=O)C(=O)Nc2ccccc21 (centres undefined) | 2.09
48 | O=C1c2ccccc2C(Cc2ccnc(F)c2)(Cc2ccnc(F)c2)c2ccccc21 | -4.23

Row | SMILES | cell shape (Z-score)
49 | COc1cc(C)c(C(=O)Oc2cc(C)c(C(=O)O)c(O)c2C)c(OC)c1C | -0.976
50 | CC(=O)O[C@@H]1CC2C(C)(C)CCC[C@]2(CO)C2=C1C(=O)C(C(C)C)C(=O)C2=O (some centres undefined) | -0.0999
51 | CCC(=O)OCC1=CCCC2C1(C)CCC(C)C2(C)CCC(C)CC(=O)O (centres undefined) | 0.255
52 | NS(=O)(=O)c1cc2c(cc1Cl)NC(C1CC3C=CC1C3)NS2(=O)=O (centres undefined) | 2.88
53 | COc1ccc2c(c1)OCC(Cc1ccc(OC)c(O)c1)C2=O (centres undefined) | -0.431
54 | CC#CC1(O)CCC2C3CCC4=CC(=O)CCC4=C3C(c3ccc(N(C)C)cc3)CC21C (centres undefined) | 0.153
55 | C/C(=C\c1ccc(C(=O)O)cc1)c1ccc2c(c1)C(C)(C)CCC2(C)C | 11
56 | C[C@]12CCC3c4ccc(OS(=O)(=O)O)cc4CCC3C1CCC2=O (some centres undefined) | 3.08
57 | CC(=O)OC(C)(C)[C@@H]1Cc2cc3ccc(=O)oc3cc2O1 | 3.1
58 | CCC1OC(=O)[C@H](C)C(=O)[C@H](C)[C@@H](OC2O[C@H](C)C[C@H](N(C)C)[C@H]2O)[C@](C)(OC)C[C@@H](C)C(=O)[C@H](C)[C@H]2N(CCCCn3cnc(-c4cccnc4)c3)C(=O)O[C@@]12C (some centres undefined) | 0.0565
59 | NCCNS(=O)(=O)c1cccc2c(Cl)cccc12 | 4.03
60 | CCCCCCCCNC(=O)C(Cc1ccc(OCc2ccncc2)cc1)NC(=O)C1CCC(CN)CC1 (centres undefined) | 0.253
61 | C#CCN(C)Cc1ccccc1 | 3.91
62 | C=C(C)C(O)Cc1c(OC)cc2oc(=O)ccc2c1OC (centres undefined) | 2.06
63 | COc1c2ccoc2cc2oc(=O)ccc12 | 4.33
64 | C/C=C(/C)C(=O)O[C@@H]1C[C@@H](OC(=O)/C(C)=C\C)[C@](C)(CO)C2C3C(=O)C[C@@H](C)C2[C@]31C | 1.6
65 | COc1ccc(C(=O)Oc2ccc(C)c3c2C(=O)OC(C)C3)c2c1C(=O)OC(C)C2 (centres undefined) | -0.0802
66 | CC1COc2c(N3CCN(C)CC3)c(F)cc3c(=O)c(C(=O)O)cn1c23 (centres undefined) | -0.258
67 | CN(C)CCOC(c1ccc(Cl)cc1)c1ccccn1 (centres undefined) | 2.56
68 | O=C(NO)c1cccc(C(=O)Nc2ccccc2)c1 | 2.99
69 | COc1ccc(C2Oc3cc(OC)ccc3CC2O)cc1 (centres undefined) | 1.66 ± 1.2
70 | COc1cc(O)c2c(=O)cc(-c3ccccc3)oc2c1OC | 2.46
71 | CC(C)[C@H](CO)Nc1nc(Nc2ccc(C(=O)O)c(Cl)c2)c2ncn(C(C)C)c2n1 | 1.97
72 | CC(C)=CCC1Cc2c(cc(O)c(C(=O)C(C)C)c2O)OC1(C)C (centres undefined) | 3.41

Row | SMILES | cell shape (Z-score)
73 | CCn1cc(C(=O)O)c(=O)c2cc(F)c(N3CCNCC3)cc21 | 1.32
74 | O=C(c1c(O)c2ccc(Cl)cc2[nH]c1=O)C1CC1 | 0.406
75 | O=C(Nc1cccc(NC(=O)c2cccc(O)c2O)c1)c1cccc(O)c1O | -0.571
76 | CC12CCC3c4ccc(O)cc4CCC3C1C[C@H](O)[C@@H]2O (some centres undefined) | 1.07
77 | COC(=O)c1c(O)cc(C)cc1Oc1c(O)cc(OC)cc1CO | -0.773 ± 0.63
78 | CCNC(=O)CCCC=CC[C@@H]1[C@H](C=C[C@H](O)CCc2ccccc2)[C@@H](O)C[C@@H]1O | -0.32
79 | COc1cc(O)c(CC=C(C)C)c(O)c1C(=O)CCc1ccc(O)cc1 | -0.218
80 | CC(C)(C)NC(=O)[C@@H]1CN(Cc2cccnc2)CCN1C[C@@H](O)C[C@@H](Cc1ccccc1)C(=O)NC1c2ccccc2C[C@@H]1O (some centres undefined) | 0.625
81 | O=C(CCc1ccc(O)cc1)c1c(O)c([C@@H]2O[C@H](CO)[C@@H](O)[C@H](O)[C@H]2O)c(O)c([C@@H]2O[C@H](CO)[C@@H](O)[C@H](O)[C@H]2O)c1O | 0.000463
82 | O=C(Nc1nc2ccc(NC(=O)C34C[C@H]5C[C@@H](C3)C[C@@H](C4)C5)cc2s1)c1ccccc1 | -4.79
83 | Brc1c(Br)c(Br)c2[nH]nnc2c1Br | -0.429
84 | C[C@@H]1CC[C@]2(C(=O)O)CC[C@]3(C)C(=CCC4[C@@]5(C)CC[C@H](O)C(C)(C)C5CC[C@]43C)C2[C@H]1C (some centres undefined) | 0.61
85 | CC(=O)OCC/C(=C\CC1(O)C(C)CCC2C(C)(C)CCCC21C)COC(C)=O (centres undefined) | 0.661
86 | C[C@@H]1O[C@@H](OCC2OC(OC3C(OC4C(Oc5c(-c6ccc(O)c(O)c6)oc6cc(O)cc(O)c6c5=O)OC(CO)C(O)C4O)OC(CO)C(O)C3O)C(O)C(O)C2O)[C@H](O)[C@H](O)[C@H]1O (some centres undefined) | 1.22
87 | CC(C)NC[C@H](O)COc1cccc2[nH]ccc12 | 0.164
88 | CC(=O)[C@H]1CCC2C3C[C@H](C)C4=CC(=O)CC[C@]4(C)C3[C@@H](O)C[C@@]21C (some centres undefined) | 1.21
89 | COc1ccc2cc([C@H](C)C(=O)O)ccc2c1 | 0.686
90 | OCC1OC(OCC2OC(NCCc3ccc(O)cc3)C(O)C(O)C2O)C(O)C(O)C1O (centres undefined) | 0.565
91 | CCc1cn(C2OCC(O)C2CO)c(=O)nc1O (centres undefined) | 0.584
92 | c1ccc(C(NCc2cccnc2)(c2ccccc2)c2ccccc2)cc1 | 0.232
93 | C=C1C(=O)[C@@]23CCC4[C@](C)(C(=O)O)CCC[C@@]4(C)[C@@H]2CC[C@@H]1C3 (some centres undefined) | 2.22
94 | Cc1nc(Nc2ncc(C(=O)Nc3c(C)cccc3Cl)s2)cc(N2CCN(CCO)CC2)n1 | 5.52 and 8.76
